Experimental data taken from PMC10789646.
No constants are given. Whether binding was seen depends on the method and setting. In cells and extracts the contact can be indirect. Some binding calls cover weakened binding; strength is not graded here. Tags and fused reporters may be left off the sequences shown.

Protein sequences, listed by entry. Tags and fused reporters are not part of them.
UniProt P55201: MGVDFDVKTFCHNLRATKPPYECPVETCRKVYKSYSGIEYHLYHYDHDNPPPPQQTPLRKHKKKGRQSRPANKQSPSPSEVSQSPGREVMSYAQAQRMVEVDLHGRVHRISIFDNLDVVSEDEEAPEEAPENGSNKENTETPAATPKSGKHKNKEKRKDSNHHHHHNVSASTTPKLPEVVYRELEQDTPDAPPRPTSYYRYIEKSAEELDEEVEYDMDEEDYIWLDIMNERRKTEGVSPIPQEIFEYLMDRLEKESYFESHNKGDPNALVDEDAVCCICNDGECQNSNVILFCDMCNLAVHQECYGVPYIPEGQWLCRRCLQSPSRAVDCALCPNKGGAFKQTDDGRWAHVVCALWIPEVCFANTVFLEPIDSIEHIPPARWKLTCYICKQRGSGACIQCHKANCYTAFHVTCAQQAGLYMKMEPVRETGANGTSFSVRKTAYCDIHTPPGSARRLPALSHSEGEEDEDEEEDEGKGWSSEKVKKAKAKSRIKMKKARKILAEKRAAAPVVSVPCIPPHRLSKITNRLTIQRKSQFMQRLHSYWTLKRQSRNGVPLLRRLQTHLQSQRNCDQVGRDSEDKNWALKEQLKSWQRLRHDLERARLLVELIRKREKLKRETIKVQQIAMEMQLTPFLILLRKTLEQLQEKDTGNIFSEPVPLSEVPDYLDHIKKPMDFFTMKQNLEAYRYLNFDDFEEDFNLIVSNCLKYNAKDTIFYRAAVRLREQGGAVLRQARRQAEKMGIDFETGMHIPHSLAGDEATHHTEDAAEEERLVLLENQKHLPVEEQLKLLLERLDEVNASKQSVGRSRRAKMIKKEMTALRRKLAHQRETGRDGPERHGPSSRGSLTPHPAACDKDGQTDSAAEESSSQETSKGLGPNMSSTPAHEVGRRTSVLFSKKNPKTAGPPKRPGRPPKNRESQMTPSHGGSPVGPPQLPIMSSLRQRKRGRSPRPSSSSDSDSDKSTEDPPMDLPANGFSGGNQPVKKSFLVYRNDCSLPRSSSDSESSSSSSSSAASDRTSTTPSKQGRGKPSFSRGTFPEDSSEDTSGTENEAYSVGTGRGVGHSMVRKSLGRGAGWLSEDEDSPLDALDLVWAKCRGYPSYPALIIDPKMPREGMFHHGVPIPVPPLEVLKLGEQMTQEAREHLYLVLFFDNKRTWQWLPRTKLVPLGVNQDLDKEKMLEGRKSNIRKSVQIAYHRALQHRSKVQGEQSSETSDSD

Target: V5-tagged BRPF1 (UniProt P55201)
Experiment: co-IP; Huh-7 cells cotransfected with V5-BRPF1 and Myc-ILF3, trichostatin A treated; anti-V5 or anti-Myc on Dynabeads Protein G; with and without 5 μM PFI-4; Western blot

- binding: binds
B1: Myc-tagged ILF3 (protein, UniProt Q12906 1-894)
chain: MRPMRIFVNDDRHVMAKHSSVYPTQEELEAVQNMVSHTERALKAVSDWIDEQEKGSSEQAESDNMDVPPEDDSKEGAGEQKTEHMTRTLRGVMRVGLVAKGLLLKGDLDLELVLLCKEKPTTALLDKVADNLAIQLAAVTEDKYEILQSVDDAAIVIKNTKEPPLSLTIHLTSPVVREEMEKVLAGETLSVNDPPDVLDRQKCLAALASLRHAKWFQARANGLKSCVIVIRVLRDLCTRVPTWGPLRGWPLELLCEKSIGTANRPMGAGEALRRVLECLASGIVMPDGSGIYDPCEKEATDAIGHLDRQQREDITQSAQHALRLAAFGQLHKVLGMDPLPSKMPKKPKNENPVDYTVQIPPSTTYAITPMKRPMEEDGEEKSPSKKKKKIQKKEEKAEPPQAMNALMRLNQLKPGLQYKLVSQTGPVHAPIFTMSVEVDGNSFEASGPSKKTAKLHVAVKVLQDMGLPTGAEGRDSSKGEDSAEETEAKPAVVAPAPVVEAVSTPSAAFPSDATAEQGPILTKHGKNPVMELNEKRRGLKYELISETGGSHDKRFVMEVEVDGQKFQGAGSNKKVAKAYAALAALEKLFPDTPLALDANKKKRAPVPVRGGPKFAAKPHNPGFGMGGPMHNEVPPPPNLRGRGRGGSIRGRGRGRGFGGANHGGYMNAGAGYGSYGYGGNSATAGYSQFYSNGGHSGNASGGGGGGGGGSSGYGSYYQGDNYNSPVPPKHAGKKQPHGGQQKPSYGSGYQSHQGQQQSYNQSPYSNYGPPQGKQKGYNHGQGSYSYSNSYNSPGGGGGSDYNYESKFNYSGSGGRSGGNSYGSGGASYNPGSHGGYGGGSGGGSSYQGKQGGYSQSNYNSPGSGQNYSGPPSSYQSSQGGYGRNADHSMNYQYR
